In US20030031647A1, “IFN-alpha and amantadine for treating hepatitis C” (priority 1997, published 2003):
Some of these results come from one statement about several compounds together.

System: Hepatitis C Virus
Assay: HCV RNA in cultured PBMC from chronic hepatitis C patients (RT-PCR, AMPLICOR HCV MONITOR assay)
Assay type: cell-based, Hepatitis C virus (subtype 1b prevalent) in human PBMC
Details: 2 μM amantadine alone
Procedure: Antiviral Effect of Amantadine and IFN-α2A Against Hepatitis C Virus on Peripheral Blood Mononuclear Cells (PBMC) from Chronic Hepatitis C Patients
Mononuclear cells from patients with chronic hepatitis C (serum anti-HCV and HCV RNA positive with histologically proven chronic hepatitis) were analyzed for the presence of HCV RNA, using reverse transcription and PCR techniques with universal primers from the highly conserved 5′ non-coding region of the HCV genome (Navas et al., J. Hepatol. 21, 182-186 (1994)). Typing and subtyping of HCV genomes were performed by RFLP analysis of PCR products (Navas et al., J. Clin. Microbiol. 21, 317-321(1997)). […] Thus, HCV RNA-positive PBMC obtained from 15 patients have been analyzed in vitro for the effects of treatment. PBMC from 10 matched healthy donors have been used as controls and analyzed similarly.
PBMC were isolated from heparinized venous blood by Ficoll-Hypaque gradient sedimentation. […] The viability of these cells was assessed by trypan blue exclusion. […] The cultures have been maintained without mitogens (medium alone) or were stimulated with single mitogens (Phytohemagglutinin (PHA) or Lipopolysaccharide (LPS) or with PHA plus LPS (10 μg/ml each)(Martin et al., Cytokine 8, 313-317 (1996)). PBMC proliferation, and the possible drug-induced cytotoxicity, were measured using non-isotopic cell-proliferation and cytotoxicity assays. […]

For `NC12CC3CC(CC(C3)C1)C2` [Amantadine, tricyclo[3.3.1.1^3,7]decane-1-amine], the “reduction of the mean amount of HCV RNA (number of copies/μg RNA)” value was > 70%.
